No constants are given. Whether binding was seen depends on the method and setting. Binding seen in cells or lysates may run through a third protein. Some results given as binding are weak or reduced against the parent protein; the word gives no strength. Sequences can lack the tags named with a protein.
Biological target: T1, Myc-tagged Rab5A (porcine) (UniProt Q06AU6)
T1 sequence: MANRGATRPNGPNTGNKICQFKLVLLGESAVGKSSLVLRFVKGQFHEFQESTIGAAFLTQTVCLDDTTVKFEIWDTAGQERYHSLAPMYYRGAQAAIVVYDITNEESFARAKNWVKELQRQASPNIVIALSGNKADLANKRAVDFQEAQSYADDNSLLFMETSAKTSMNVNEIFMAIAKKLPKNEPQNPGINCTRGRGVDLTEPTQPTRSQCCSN
Assay: co-IP

B1: Flag-tagged TMEM239 (transmembrane protein 239), expressed in HEK293T cells (protein, UniProt F1S8A1 1-152)
chain: VMQQLRVETDATGAGEGPQRAVPWTAWLTRDSWVRWCMCHMPPSWAQWWITSGWRQPLQRVLWGLEGILYLLLALMLCHALFTTGSHLLSSLWPVVAAAWRHLLPAVLLLALSALPALLFMASFLLLFSTLLSLVGLLTSMSHPGLAQDLDQ
For B1, the binding was “binds”.

— article PMC11288436
